No constants are given. Whether binding was seen depends on the method and setting. Binding seen in cells or lysates may run through a third protein. These calls come from enrichment with a bait or labelling near it, and not all partners need be listed.

The chains behind the UniProt entries cited, without tags or fusion partners.
UniProt Q8CJG0: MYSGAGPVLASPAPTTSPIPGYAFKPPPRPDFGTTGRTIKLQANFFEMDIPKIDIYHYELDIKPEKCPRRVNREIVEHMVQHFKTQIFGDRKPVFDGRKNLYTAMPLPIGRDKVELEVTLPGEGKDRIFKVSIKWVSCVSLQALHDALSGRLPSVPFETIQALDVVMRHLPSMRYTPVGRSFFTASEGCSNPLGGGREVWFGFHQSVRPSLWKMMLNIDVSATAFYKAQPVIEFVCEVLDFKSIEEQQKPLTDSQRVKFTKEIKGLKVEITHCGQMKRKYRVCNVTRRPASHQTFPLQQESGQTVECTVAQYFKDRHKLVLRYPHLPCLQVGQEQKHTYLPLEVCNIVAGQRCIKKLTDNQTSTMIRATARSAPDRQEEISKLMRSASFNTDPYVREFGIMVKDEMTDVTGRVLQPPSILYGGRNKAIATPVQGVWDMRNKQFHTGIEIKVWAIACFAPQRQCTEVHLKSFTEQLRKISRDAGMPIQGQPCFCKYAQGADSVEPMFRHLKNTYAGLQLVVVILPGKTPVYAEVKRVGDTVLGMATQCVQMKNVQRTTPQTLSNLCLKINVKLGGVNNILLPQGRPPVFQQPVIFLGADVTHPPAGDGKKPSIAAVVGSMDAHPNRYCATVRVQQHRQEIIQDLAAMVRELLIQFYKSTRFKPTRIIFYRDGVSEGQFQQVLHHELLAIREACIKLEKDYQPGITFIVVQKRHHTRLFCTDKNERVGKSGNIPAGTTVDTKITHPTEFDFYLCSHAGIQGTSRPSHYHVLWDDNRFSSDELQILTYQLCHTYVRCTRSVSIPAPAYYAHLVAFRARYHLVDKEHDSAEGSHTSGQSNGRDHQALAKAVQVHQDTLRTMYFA

The target of this assay is Argonaute 2 (mouse (endogenous in NSC-34)) (UniProt Q8CJG0). Description: affinity purification with mass spectrometry.

B1: CPSF2 (protein, UniProt O35218 1-782)
chain: MTSIIKLTTLSGVQEESALCYLLQVDEFRFLLDCGWDEHFSVDIIDSLRKHVHQIDAVLLSHPDPLHLGALPFAVGKLGLNCAIYATIPVYKMGQMFMYDLYQSRHNTEDFTLFTLDDVDAAFDKIQQLKFSQIVNLKGKGHGLSITPLPAGHMIGGTIWKIVKDGEEEIVYAVDFNHKREIHLNGCSLEMLSRPSLLITDSFNATYVQPRRKQRDEQLLTNVLETLRGDGNVLIAVDTAGRVLELAQLLDQIWRTKDAGLGVYSLALLNNVSYNVVEFSKSQVEWMSDKLMRCFEDKRNNPFQFRHLSLCHGLSDLARVPSPKVVLASQPDLECGFSRDLFIQWCQDPKNSIILTYRTTPGTLARFLIDNPTEKVTEIELRKRVKLEGKELEEYVEKEKLKKEAAKKLEQSKEADIDSSDESDVEEDVDQPSAHKTKHDLMMKGEGSRKGSFFKQAKKSYPMFPAPEERIKWDEYGEIIKPEDFLVPELQATEEEKSKLESGLTNGEEPMDQDLSDVPTKCVSATESIEIKARVTYIDYEGRSDGDSIKKIINQMKPRQLIIVHGPPEASQDLAECCRAFGGKDIKVYMPKLHETVDATSETHIYQVRLKDSLVSSLQFCKAKDAELAWIDGVLDMRVSKVDTGVILEEGELKDDGEDSEMQVDAPSDSSAMAQQKAMKSLFGEDEKELGEETEIIPTLEPLPPHEVPGHQSVFMNEPRLSDFKQVLLREGIQAEFVGGVLVCNNQVAVRRTETGRIGLEGCLCQDFYRIRDLLYEQYAIV
Take B1: the binding result was “binds”.

B2: CSTF1 (protein, UniProt Q99LC2 1-431)
chain: MYRTKVGLKDRQQLYKLIISQLLYDGYISIANGLINEIKPQSVCAPSEQLLHLIKLGMENDDTAVQYAIGRSDTVAPGTGIDLEFDADVQTMSPEASEYETCYVTSHKGPCRVATYSRDGQLIATGSADASIKILDTERMLAKSAMPIEVMMNETAQQNMENHPVIRTLYDHVDEVTCLAFHPTEQILASGSRDYTLKLFDYSKPSAKRAFKYIQEAEMLRSISFHPSGDFILVGTQHPTLRLYDINTFQCFVSCNPQDQHTDAICSVNYNPSANMYVTGSKDGCIKLWDGVSNRCITTFEKAHDGAEVCSAIFSKNSKYILSSGKDSVAKLWEISTGRTLVRYTGAGLSGRQVHRTQAVFNHTEDYILLPDERTISLCCWDSRTAERRNLLSLGHNNIVRCIVHSPTNPGFMTCSDDFRARFWYRRSTTD
Turning to B2, the binding entry was “binds”.

B3: PABPN1 (protein, UniProt Q8CCS6 1-302)
chain: MAAAAAAAAAAGAAGGRGSGPGRRRHLVPGAGGEAGEGDPGGAGDYGNGLESEELEPGELLPEPEPEEEPPRPRAPPGAPGPGPGSGAPGSQEEEEEPGLVEADPGDGAIEDPELEAIKARVREMEEEAEKLKELQNEVEKQMNMSPPPGNAGPVIMSLEEKMEADARSIYVGNVDYGATAEELEAHFHGCGSVNRVTILCDKFSGHPKGFAYIEFSDKESVRTSLALDESLFRGRQIKVIPKRTNRPGISTTDRGFPRSRYRARTTNYNSSRSRFYSGFNSRPRGRIYRGRARATSWYSPY
Regarding B3, the binding result is “binds”.

B4: CPSF3 (protein, UniProt Q9QXK7 1-684)
chain: MSAIPAEESDQLLIRPLGAGQEVGRSCIILEFKGRKIMLDCGIHPGLEGMDALPYIDLIDPAEIDLLLISHFHLDHCGALPWFLQKTSFKGRTFMTHATKAIYRWLLSDYVKVSNISADDMLYTETDLEESMDKIETINFHEVKEVAGIKFWCYHAGHVLGAAMFMIEIAGVKLLYTGDFSRQEDRHLMAAEIPNIKPDILIIESTYGTHIHEKREEREARFCNTVHDIVNRGGRGLIPVFALGRAQELLLILDEYWQNHPELHDIPIYYASSLAKKCMAVYQTYVNAMNDKIRKQININNPFVFKHISNLKSMDHFDDIGPSVVMASPGMIQNGLSRELFESWCTDKRNGVIIAGYCVEGTLAKHIMSEPEEITTMSGQKLPLKMSVDYISFSAHTDYQQTSEFIRALKPPHVILVHGEQNEMARLKAALIREYEDNDEVHIEVHNPRNTEAVTLNFRGEKLAKVMGFLADKKPEQGQRVSGILVKRNFNYHILSPCDLSNYTDLAMSTVKQTQAIPYTGPFYLLYYQLQKLTGDVEELEIQEKPALKVFKSITVVQEPGMVVLEWLANPSNDMYADTVTTVILEVQSNPKIRKGAVQKVSKKLEMHVYSKRLEVMLQDIFGEDCVSVKDDSVLSVTVDGKTANINLETRAVECEEGSEDDESLREMVELAAQRLYEALTPVH
Regarding B4, the binding result was “binds”.

B5: SRSF3 (protein, UniProt P84104 1-164)
chain: MHRDSCPLDCKVYVGNLGNNGNKTELERAFGYYGPLRSVWVARNPPGFAFVEFEDPRDAADAVRELDGRTLCGCRVRVELSNGEKRSRNRGPPPSWGRRPRDDYRRRSPPPRRRSPRRRSFSRSRSRSLSRDRRRERSLSRERNHKPSRSFSRSRSRSRSNERK
As for B5, the binding entry is given as “binds”.

B6: CPSF7 (protein, UniProt Q8BTV2 1-471)
chain: MSEGVDLIDIYADEEFNQDSEFNNTDQIDLYDDVLTAASQPSDDRSSSTEPPPPVRQEPAPKPNNKTPAILYTYSGLRSRRAAVYVGSFSWWTTDQQLIQVIRSIGVYDVVELKFAENRANGQSKGYAEVVVASENSVHKLLELLPGKVLNGEKVDVRPATRQNLSQFEAQARKRECVRVPRGGIPPRAHSRDSSDSADGRATPSENLVPSSARVDKPPSVLPYFNRPPSALPLMGLPPPPIPPPPPLSSSFGVPPPPPGIHYQHLMPPPPRLPPHLAVPPPGAIPPALHLNPAFFPPPNATVGPPPDTYMKASTPYNHHGSRDSGPPPSTVSEAEFEEIMKRNRAISSSAISKAVSGASAGDYSDAIETLLTAIAVIKQSRVANDERCRVLISSLKDCLHGIEAKSYSVGASGSSSRKRHRSRERSPSRSRESSRRHRDLLHNEDRHDDYFQERNREHERHRDRERDRHH
Take B6: the binding result is “binds”.

B7: SRSF7 (protein, UniProt Q8BL97 1-267)
chain: MRSSARGRPLQAATAFFLSLFFFLRRFERGFWLWGGDSETKVYVGNLGTGAGKGELERAFSYYGPLRTVWIARNPPGFAFVEFEDPRDAEDAVRGLDGKVICGSRVRVELSTGMPRRSRFDRPPARRPFDPNDRCYECGEKGHYAYDCHRYSRRRRSRSRSRSHSRSRGRRYSRSRSRSRGRRSRSASPRRSRSVSLRRSRSASLRRSRSGSIIGSRYFQSRSRSRSRSRSISRPRSSRSKSRSPSPKRSRSPSGSPHRSASPERMD
Turning to B7, the binding entry is “binds”.

Values taken from publication doi:10.1101/2020.12.15.422806.
